Measured values taken from PMC10449921.

Sequences of proteins named here, by UniProt entry; tags and fusion partners are left off.
UniProt P06493: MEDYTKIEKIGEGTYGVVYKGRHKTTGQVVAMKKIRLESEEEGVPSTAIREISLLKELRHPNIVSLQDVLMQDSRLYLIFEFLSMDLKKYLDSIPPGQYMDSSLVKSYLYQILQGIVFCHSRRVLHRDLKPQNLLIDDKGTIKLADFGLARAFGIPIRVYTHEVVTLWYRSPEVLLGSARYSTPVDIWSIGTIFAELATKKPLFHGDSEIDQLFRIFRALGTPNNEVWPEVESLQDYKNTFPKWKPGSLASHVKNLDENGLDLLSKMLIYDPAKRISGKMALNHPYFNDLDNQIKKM

Target: CDK1 (human (endogenous in PC9 and H358)) (UniProt P06493)
Experiment: affinity purification with mass spectrometry; CDK1 co-IP with LC/MS in LINC00880-overexpressed LUAD cells

B1: PRDX1 (protein, UniProt Q06830 1-199)
chain: MSSGNAKIGHPAPNFKATAVMPDGQFKDISLSDYKGKYVVFFFYPLDFTFVCPTEIIAFSDRAEEFKKLNCQVIGASVDSHFCHLAWVNTPKKQGGLGPMNIPLVSDPKRTIAQDYGVLKADEGISFRGLFIIDDKGILRQITVNDLPVGRSVDETLRLVQAFQFTDKHGEVCPAGWKPGSDTIKPDVQKSKEYFSKQK
binding: binds

No constants are given. Whether binding was seen depends on the method and setting. In cells and extracts the contact can be indirect. A yes stands for co-enrichment or nearness to the bait. Other partners may have been found.
